Data: US20230181681A1, “PEPTIDE FOR SUPPRESSING CORONAVIRUS AND USE THEREOF” (priority 2020, published 2023)
These are yes or no findings as the source states them, for the method shown. Binding seen in cells or lysates may run through a third protein. Some results given as binding are weak or reduced against the parent protein; the word gives no strength.

Protein sequences, listed by entry. Tags and fused reporters are not part of them. Residues count along the entry.
UniProt P33469: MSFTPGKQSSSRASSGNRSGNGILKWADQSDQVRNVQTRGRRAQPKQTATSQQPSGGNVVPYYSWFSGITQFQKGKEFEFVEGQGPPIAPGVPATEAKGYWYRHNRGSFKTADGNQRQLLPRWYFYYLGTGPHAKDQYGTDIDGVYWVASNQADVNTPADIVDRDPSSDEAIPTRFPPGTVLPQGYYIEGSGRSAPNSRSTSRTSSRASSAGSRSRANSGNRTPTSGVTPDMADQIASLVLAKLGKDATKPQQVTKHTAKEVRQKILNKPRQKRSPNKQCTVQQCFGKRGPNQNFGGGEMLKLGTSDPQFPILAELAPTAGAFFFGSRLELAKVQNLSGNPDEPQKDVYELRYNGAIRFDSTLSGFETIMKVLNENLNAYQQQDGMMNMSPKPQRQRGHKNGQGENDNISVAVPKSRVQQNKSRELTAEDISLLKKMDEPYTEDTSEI
UniProt P36334, residues 14-1353: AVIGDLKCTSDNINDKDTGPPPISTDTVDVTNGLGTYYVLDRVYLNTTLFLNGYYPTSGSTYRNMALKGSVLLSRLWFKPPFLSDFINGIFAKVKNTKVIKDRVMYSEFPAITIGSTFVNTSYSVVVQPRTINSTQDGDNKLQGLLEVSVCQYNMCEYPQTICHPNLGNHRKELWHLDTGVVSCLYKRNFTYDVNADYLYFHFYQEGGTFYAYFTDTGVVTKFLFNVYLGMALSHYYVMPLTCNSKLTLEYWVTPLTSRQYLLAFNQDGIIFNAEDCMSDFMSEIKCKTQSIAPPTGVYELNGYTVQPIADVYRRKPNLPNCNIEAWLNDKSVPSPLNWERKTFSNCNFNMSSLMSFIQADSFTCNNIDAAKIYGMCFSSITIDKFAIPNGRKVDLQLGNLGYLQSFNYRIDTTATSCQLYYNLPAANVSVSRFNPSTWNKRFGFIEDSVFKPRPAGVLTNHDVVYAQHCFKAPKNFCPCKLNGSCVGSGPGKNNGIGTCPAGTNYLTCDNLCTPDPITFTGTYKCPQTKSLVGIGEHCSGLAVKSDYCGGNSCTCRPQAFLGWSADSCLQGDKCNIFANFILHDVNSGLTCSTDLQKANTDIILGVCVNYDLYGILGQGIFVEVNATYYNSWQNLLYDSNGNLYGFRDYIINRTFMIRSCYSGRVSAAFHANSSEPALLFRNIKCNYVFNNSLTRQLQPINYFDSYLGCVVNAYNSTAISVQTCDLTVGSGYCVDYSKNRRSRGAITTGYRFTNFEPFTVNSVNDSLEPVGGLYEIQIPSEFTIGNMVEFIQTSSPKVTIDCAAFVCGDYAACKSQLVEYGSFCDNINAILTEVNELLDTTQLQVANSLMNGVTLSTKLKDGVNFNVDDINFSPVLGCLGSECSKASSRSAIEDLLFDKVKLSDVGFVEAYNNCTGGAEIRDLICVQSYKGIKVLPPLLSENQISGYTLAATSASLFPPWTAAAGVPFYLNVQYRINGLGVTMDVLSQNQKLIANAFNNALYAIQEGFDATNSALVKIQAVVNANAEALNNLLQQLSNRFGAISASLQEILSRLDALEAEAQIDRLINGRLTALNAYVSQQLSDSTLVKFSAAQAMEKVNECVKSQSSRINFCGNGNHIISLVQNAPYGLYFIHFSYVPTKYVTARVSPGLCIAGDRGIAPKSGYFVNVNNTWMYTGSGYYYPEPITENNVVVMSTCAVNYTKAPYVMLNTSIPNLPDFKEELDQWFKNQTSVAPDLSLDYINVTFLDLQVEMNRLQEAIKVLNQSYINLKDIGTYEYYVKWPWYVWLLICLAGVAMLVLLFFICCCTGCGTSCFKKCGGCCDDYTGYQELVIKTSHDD

Biological target: HCoV-OC43 N protein (HCoV-OC43) (UniProt P33469)
Assay: co-immunoprecipitation with anti-S Ab, Western blot with anti-N mAb (FIG. 19B)

## HCoV-OC43 S protein (from UniProt P36334 14-1353)
  binding: binds
